Assay results as given in patent US20100015144A1.
These are yes or no findings as the source states them, for the method shown. Some binding calls cover weakened binding; strength is not graded here.

The chains behind the UniProt entries cited, without tags or fusion partners. Where a name states a change or a piece, a line headed by the entry shows the natural chain unless it says otherwise.
UniProt P27037: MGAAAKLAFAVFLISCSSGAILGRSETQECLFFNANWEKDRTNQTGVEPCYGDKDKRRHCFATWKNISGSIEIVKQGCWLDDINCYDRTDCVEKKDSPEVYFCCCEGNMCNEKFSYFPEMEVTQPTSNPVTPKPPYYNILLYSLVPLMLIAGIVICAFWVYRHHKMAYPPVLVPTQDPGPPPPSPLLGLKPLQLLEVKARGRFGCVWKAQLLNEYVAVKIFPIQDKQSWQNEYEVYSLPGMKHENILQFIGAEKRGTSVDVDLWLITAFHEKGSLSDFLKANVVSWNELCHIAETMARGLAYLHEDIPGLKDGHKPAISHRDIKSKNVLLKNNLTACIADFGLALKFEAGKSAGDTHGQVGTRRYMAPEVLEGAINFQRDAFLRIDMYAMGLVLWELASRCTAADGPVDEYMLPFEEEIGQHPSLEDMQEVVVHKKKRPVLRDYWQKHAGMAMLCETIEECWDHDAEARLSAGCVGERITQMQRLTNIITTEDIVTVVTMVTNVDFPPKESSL

Target: T1, GDF-11 (UniProt O95390)
T1 sequence (looked up): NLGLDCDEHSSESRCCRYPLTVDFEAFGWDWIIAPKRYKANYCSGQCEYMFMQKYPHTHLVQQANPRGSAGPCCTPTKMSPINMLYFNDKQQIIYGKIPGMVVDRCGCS
Assay: Biacore SPR, GDF-11 immobilized on CM5 chip

binding: binds
Substance: ActRIIa-mFc (from UniProt P27037 21-135) (Fc fusion)
